The record followed here is PMC12411348.

The chains behind the UniProt entries cited, without tags or fusion partners.
UniProt P40337: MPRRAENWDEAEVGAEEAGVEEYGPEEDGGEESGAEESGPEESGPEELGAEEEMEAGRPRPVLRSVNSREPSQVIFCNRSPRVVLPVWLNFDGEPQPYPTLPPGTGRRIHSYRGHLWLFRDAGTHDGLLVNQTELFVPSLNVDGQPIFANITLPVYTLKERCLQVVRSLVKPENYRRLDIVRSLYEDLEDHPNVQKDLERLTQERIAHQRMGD
UniProt P55036: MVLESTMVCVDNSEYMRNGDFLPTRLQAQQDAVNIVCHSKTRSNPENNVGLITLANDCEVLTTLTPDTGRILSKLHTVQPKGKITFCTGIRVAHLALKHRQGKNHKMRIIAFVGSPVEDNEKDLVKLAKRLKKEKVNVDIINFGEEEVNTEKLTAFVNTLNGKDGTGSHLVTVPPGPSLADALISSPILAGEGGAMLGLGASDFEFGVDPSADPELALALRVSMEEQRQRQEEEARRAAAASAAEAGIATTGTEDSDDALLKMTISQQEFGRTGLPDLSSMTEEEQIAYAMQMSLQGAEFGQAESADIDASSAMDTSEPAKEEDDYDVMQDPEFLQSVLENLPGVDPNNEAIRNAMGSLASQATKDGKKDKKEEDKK

Results are given in words; binding and its absence hold for the method and conditions named. Binding seen in cells or lysates may run through a third protein. A yes stands for co-enrichment or nearness to the bait. Other partners may have been found.

This assay addresses Flag-pVHL (human) (UniProt P40337). Kind of assay: affinity purification with mass spectrometry; HEK293T cells transfected with pCS2-Flag or pCS2-Flag-pVHL for 48 h, MG132 (10 μM) for 8 h, anti-Flag immunoprecipitation, LC–MS/MS (DIA).

Regarding “endogenous PSMD4 (subunit of the 19S regulatory particle of the 26S proteasome) (from UniProt P55036 1-377)”, the binding result is recorded as “binds”.
